Assay results taken from US20170020890A1, “PHARMACEUTICAL COMPOSITION COMPRISING FATTY ACID DERIVATIVE” (SUCAMPO AG, priority 2015, published 2017).

Experiment: Sensory test (sweetness) of sweetening agents in MCT
Set-up: key: showing the desired sweetness (+); nor show the desired sweetness (−)
Conditions: mixture in MCT

With thaumatin the “Sensory test (sweetness)” value (Example 1) was “−” and the “Sensory test (sweetness)” value (Example 5) was “−”.
